# Publication PMC12040169 (PLOS Biology, 2025)
# The other results are listed elsewhere or left out.
# Test system: T1, CTL2-GFP (C. trachomatis L2/434/Bu, GFP-expressing)
# T1 construct: L2/434/Bu, GFP-expressing
# Set-up: species or system HeLa; Intracellular C. trachomatis growth in HeLa cells, bulk GFP fluorescence relative to DMSO
# Settings: bulk GFP, single well; 28.5 h, 10 µM; inhibitor
row,SMILES,% of control remaining [%]
1,Cc1ccc(C(=O)N2CC=C(c3c[nH]c4ncccc34)CC2)cn1 [CBK297889],141.171
2,CCC(C)NC(=O)Cn1c(C2CCCNC2)cc2cccnc21 (stereo not shown) [CBK285085],134.166
3,CCOC(=O)C1(C2CCCCC2)CCN(C(=O)C2COc3ccccc3O2)CC1 (stereo not shown) [CBK136925],96.8076
4,Cc1ccc(CNC(=O)N2CCC3(CC2)OCCc2c3[nH]c3ccccc23)cc1 [CBK047121],213.572
5,CSCCC(=O)N1CCCC2(CCN(C(=O)c3cc(F)c(F)cc3F)C2)C1 (stereo not shown) [CBK131557],115.23
6,N#Cc1ccc(NC(=O)Nc2ccccc2)cc1 [CBK086045],90.0037
7,O=C(C1CC=CCC1)N1CCC(c2[nH]ncc2-c2ccncc2)CC1 (stereo not shown) [CBK284212],115.959
8,Cc1c(Cl)cccc1NC(=O)CSc1nnc(Cc2cccc3ccccc23)n1-c1ccccc1 [CBK266042],109.539
9,COc1ccc([N+](=O)[O-])cc1CSc1nnc(-c2ccco2)n1C [CBK269671],113.895
10,Cc1cccc(-c2cncc(C3CCCN(C(=O)Cc4c[nH]c5ccccc45)C3)n2)c1 (stereo not shown) [CBK286149],133.223
11,COc1ccccc1/C=C/C1=NN(c2ccc(F)cc2)C(c2ccccc2OC)C1 (stereo not shown) [CBK262303],100
12,CC(=O)Nc1ccc(S(=O)(=O)Nc2ccc(-c3cn4cccnc4n3)cc2)cc1 [CBK268671],74.5601
13,O=C(NCCc1cccs1)Nc1ccc(Cl)cc1C(F)(F)F [CBK044825],95.6946
14,C=CCn1c(Cc2csc(NC(=O)c3cccc(NC(C)=O)c3)n2)n[nH]c1=S [CBK297891],150
15,COc1ccc2sc(Br)c(C(=O)O)c2c1 [CBK019180],141.404
16,O=C(c1cc2ncc(Br)cn2n1)N1CCOCC1 [CBK058513],144.322
17,Cc1ccc(NC(=O)COc2ccccc2)c(NC(=O)c2ccccc2I)c1 [CBK266793],116.241
18,Fc1ccc2nc(Nc3nnc(-c4ccco4)o3)sc2c1 [CBK287488],138.907
19,COCCCOc1nccnc1NC(C)C [CBK115876],173.203
20,O=C(Cn1ncn2c(cc3ccsc32)c1=O)N1CCCCC1 [CBK284195],85.8303
21,COc1ccc(NC(=O)c2cc(C(F)(F)F)cc(C(F)(F)F)c2)cn1 [CBK057634],121.144
22,CCN(CC)C(=O)C1CCCN(C(=O)NCCCN2CCN(C)CC2)C1 (stereo not shown) [CBK156115],145.065
23,COc1ccc(CC(CC(=O)O)C(=O)Nc2ccc(OC)cc2)cc1 (stereo not shown) [CBK286975],107.051
24,COCCNc1nccnc1-c1ccsc1 [CBK038008],116.018
25,O=C1c2ccc(Oc3cccc(Oc4ccc5c(c4)C(=O)N(c4ccccn4)C5=O)c3)cc2C(=O)N1c1ccccn1 [CBK261397],100
26,O=C(N1CCCCCC1)N1CCN(S(=O)(=O)N2CCOCC2)CC1 [CBK268681],135.297

# Random excerpt: three compounds from above
row,SMILES,% of control remaining [%]
2,CCC(C)NC(=O)Cn1c(C2CCCNC2)cc2cccnc21 (stereo not shown) [CBK285085],134.166
17,Cc1ccc(NC(=O)COc2ccccc2)c(NC(=O)c2ccccc2I)c1 [CBK266793],116.241
14,C=CCn1c(Cc2csc(NC(=O)c3cccc(NC(C)=O)c3)n2)n[nH]c1=S [CBK297891],150

# The listing continues.

row,SMILES,% of control remaining [%]
1,COc1ccc(Nc2nc(-c3cccc(N)c3)cnc2N)cc1 [CBK063585],195.33
2,COc1cc(CNc2cc(-c3ccsc3)ncn2)cc(OC)c1OC [CBK037794],182.524
3,CSc1nsc(SCC(=O)Nc2cccc(NC(C)=O)c2)n1 [CBK269833],98.5602
4,O=C(C1CC1)N1CCC(Cn2nc(-c3ccccc3)ccc2=O)CC1 [CBK284115],113.904
5,O=S1(=O)CC(NCc2ccccc2)C(Nc2ccccc2)C1 (stereo not shown) [CBK265797],179.686
6,O=c1cc2nc(-c3ccccc3F)[nH]c(=S)n2[nH]1 [CBK288402],135.469
7,N#Cc1cccc(C(=O)NCCc2cn3c(n2)CCCC3)c1 [CBK305046],90.5695
8,COc1ccc(N(C(C)C(=O)N/N=C2\C(=O)Nc3ccccc32)S(C)(=O)=O)cc1 (stereo not shown) [CBK262408],119.307
9,CC(=O)N1CCCCC[C@@H]2[C@@H]1C[C@@H](Cc1ccccc1)N2C(=O)c1ccccc1 [CBK285576],97.5379
10,Cn1cc(C(=O)NC2CCN(c3ccc(C#N)cc3F)CC2)cn1 [CBK304939],132.019
11,CN(C)c1ccc(-c2cncc(NCc3ccc4c(c3)OCO4)n2)cc1 [CBK037190],108.355
12,Cc1ccc(-c2cncc(N3CCCC3CO)n2)cc1C (stereo not shown) [CBK065945],182.077
13,N#Cc1cnn(-c2ccc(Cl)cc2Cl)c1N [CBK086125],125.68
14,COc1ccc(Br)c(C(CO)N(C)C(=O)Cc2cnccc2C)c1 (stereo not shown) [CBK306267],114.481
15,O=P(O)(COc1ccccc1)COc1ccccc1 [CBK261620],119.446
16,Cc1nccn1CCC(=O)N1CCc2[nH]c3ccccc3c2C1 [CBK281882],111.337
17,CC(C)Cn1cncc1CNS(=O)(=O)c1cccc(C(=O)N2CCC2)c1 [CBK307068],115.471
18,CCCCc1c(Cl)nc(C#N)c2c1CCCC2 [CBK020252],124.462
19,CSc1nsc(SCc2cnc(C)nc2N)n1 [CBK268337],112.758
20,CN1C(=O)COc2ccccc2C/C=C/C[C@H]2CN(C(=O)C3CCC3)CC[C@H]21 [CBK292087],111.843
21,CCOC(=O)N1CCN(Cc2ccc(OCc3cccnc3)cc2)CC1 [CBK305883],120.535
22,CC(C)c1ccc(/C=C/C(=O)NCCN2CCOCC2)cc1 [CBK149631],100
23,CN1CCN(S(=O)(=O)c2ccccc2Br)CC1 [CBK062435],94.8446
24,Cc1noc(C)c1NC(=O)c1c(-c2ccccc2)noc1C [CBK200314],148.56
25,COc1ccc2[nH]cc(C(=O)NCCn3nc(C)c(C)c3C)c2c1 [CBK281389],117.455
26,CCOC(=O)c1ccc(/N=C2/NC(=O)/C(=C\c3ccccc3OCC(=O)O)S2)cc1 [CBK265658],99.1252
